PubChem BioAssay AID1259291, Sanger Institute – 2017
This is an unselected part of 794 reagents. Of all reagents, 15 (1.9%) were called active. 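Calls rest on knock-down alone; drug synergy scores do not affect them; drugs added a day post-transfection, DMSO vehicle as comparison.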 Further read-outs or replicates are left out here. No sequences are given here. The record does not give: the amount of reagent, the time to read-out.

Purpose: 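Find kinase and colorectal-cancer-mutated genes whose loss kills HT29 cells or aids anchor drugs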 (primary screen)
Cells: HT29 human colorectal cancer cells
Reagent: siRNA pool against human genes
Treatment: anchor drugs added a day after transfection: BYL719 at 1 µM, cetuximab at 5 µg/ml or trametinib at 10 nM, or DMSO vehicle alone
Detection: 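Replicate-averaged viability relative to non-targeting pool, robust z-score based on control wells, plus per-drug synergy score for 1 µM BYL719, 5 µg/ml cetuximab and 10 nM trametinib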
Reading the numbers: robust z-score, knock-down alone: higher = more viable cells
Hit rule: 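a knock-down alone scoring under -3 on robust z-score is called essential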
Calls: active = essential (knock-down alone); inactive = no change alone

The first 2 records, to show the layout:
{"target gene": "PRKG2", "PubChem SID": "SID56478832", "robust z-score, knock-down alone": 0.552, "Outcome": "inactive"}
{"target gene": "STK11", "PubChem SID": "SID152153881", "robust z-score, knock-down alone": -1.39, "Outcome": "inactive"}

Main list, from the start:
{"target gene": "PRKG2", "PubChem SID": "SID56478832", "robust z-score, knock-down alone": 0.552, "Outcome": "inactive"}
{"target gene": "STK11", "PubChem SID": "SID152153881", "robust z-score, knock-down alone": -1.39, "Outcome": "inactive"}
{"target gene": "TTK", "PubChem SID": "SID56478775", "robust z-score, knock-down alone": 0.552, "Outcome": "inactive"}
{"target gene": "ACSL6", "PubChem SID": "SID152156030", "robust z-score, knock-down alone": 0.552, "Outcome": "inactive"}
{"target gene": "CHD4", "PubChem SID": "SID152156048", "robust z-score, knock-down alone": -0.785, "Outcome": "inactive"}
{"target gene": "RPS6KL1", "PubChem SID": "SID152155635", "robust z-score, knock-down alone": 0.552, "Outcome": "inactive"}
{"target gene": "HIPK4", "PubChem SID": "SID135620890", "robust z-score, knock-down alone": 0.552, "Outcome": "inactive"}
{"target gene": "ATR", "PubChem SID": "SID135620635", "robust z-score, knock-down alone": 0.552, "Outcome": "inactive"}
{"target gene": "MAPK6", "PubChem SID": "SID56478707", "robust z-score, knock-down alone": -0.602, "Outcome": "inactive"}
{"target gene": "HUS1", "PubChem SID": "SID135620649", "robust z-score, knock-down alone": 0.551, "Outcome": "inactive"}
{"target gene": "PKIB", "PubChem SID": "SID56479212", "robust z-score, knock-down alone": -0.534, "Outcome": "inactive"}
{"target gene": "AKT2", "PubChem SID": "SID135620600", "robust z-score, knock-down alone": 0.552, "Outcome": "inactive"}
